Positions count from the first letter of the chain named. Some of these results come from one statement about several compounds together.
Legend:
[1] = system: Androgen Receptor, 22RV1 (AR H875Y); assay: Androgen Receptor Degradation-Imaging Assay, 22RV-1 cell line; format: cell-based, human; settings: 22RV-1, 16 hours treatment; for pDC50: immunofluorescence; for Dmax: maximum observed degradation
[2] = target: T1, Androgen Receptor, VCaP (AR wild type and amplified) (Homo sapiens, UniProt P10275); assay: Androgen Receptor Degradation-Imaging Assay, VCaP cell line; format: cell-based; settings: 16 hours treatment, immunofluorescence
T1 construct: endogenous in cells; host or cells: VCaP
T1 sequence (P10275 1-920): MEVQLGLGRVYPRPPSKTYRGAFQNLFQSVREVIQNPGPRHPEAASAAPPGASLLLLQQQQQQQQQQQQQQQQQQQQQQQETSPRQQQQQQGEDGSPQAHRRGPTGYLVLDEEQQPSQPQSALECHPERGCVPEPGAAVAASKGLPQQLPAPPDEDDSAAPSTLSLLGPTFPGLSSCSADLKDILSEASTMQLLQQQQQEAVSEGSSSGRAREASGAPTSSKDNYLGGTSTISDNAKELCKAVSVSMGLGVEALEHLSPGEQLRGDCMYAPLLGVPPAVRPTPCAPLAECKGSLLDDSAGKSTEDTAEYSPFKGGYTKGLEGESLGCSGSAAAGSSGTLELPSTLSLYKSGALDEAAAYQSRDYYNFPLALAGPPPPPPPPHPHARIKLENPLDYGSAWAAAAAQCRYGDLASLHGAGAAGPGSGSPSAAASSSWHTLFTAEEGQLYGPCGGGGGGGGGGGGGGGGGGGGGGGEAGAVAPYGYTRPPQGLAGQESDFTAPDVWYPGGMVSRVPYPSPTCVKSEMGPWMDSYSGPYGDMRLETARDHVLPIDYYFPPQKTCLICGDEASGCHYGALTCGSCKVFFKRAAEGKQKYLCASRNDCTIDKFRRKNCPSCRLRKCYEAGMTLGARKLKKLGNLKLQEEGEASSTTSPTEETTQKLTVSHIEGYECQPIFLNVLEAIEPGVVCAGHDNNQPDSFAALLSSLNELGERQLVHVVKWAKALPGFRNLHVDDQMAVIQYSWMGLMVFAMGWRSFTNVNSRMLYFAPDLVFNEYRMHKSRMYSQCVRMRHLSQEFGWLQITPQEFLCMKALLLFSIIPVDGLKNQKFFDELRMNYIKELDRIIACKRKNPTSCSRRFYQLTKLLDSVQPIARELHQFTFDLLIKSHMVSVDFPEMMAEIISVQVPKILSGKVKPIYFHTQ
Protocol: (§1) Degradation of Androgen Receptor (AR) protein in human prostate cancer cell lines (MDA-PCa-2b (AR T878A/L702H), LNCaP (AR T878A), VCaP (AR wild type and amplified) 22RV1 (AR H875Y) and PC3 (AR negative control)) treated with AR PROTACs was quantified using immunofluorescence. Prostate cancer cells were plated (MDA-PCa-2b, and VCaP 16,000 cells/well; LNCaP and 22RV1 32,000 cells/well, and PC3 8,000 cells/well) in an optical bottom 96-well cell culture plate and allowed to attach overnight. The prostate cancer cell lines were treated for 16 hours with a 10-point 3-fold dilution series (dose range=0.02 nM to 333 nM). PC3 is included as an AR negative control and not treated with compound. Cells are fixed and permeabilized with 4% formaldehyde, blocked with 10% goat serum in immunofluorescence (IF) buffer (130 mM NaCl, 7 mM Na2HPO4, 3.5 mM NaH2PO4, 7.7 mM NaN3, 0.1% BSA, 0.2% Triton X, 0.05% Tween 20) prior to overnight incubation with rabbit antibody specific for C terminus of AR (commercially available from RevMaB Biosciences). Following washes with IF buffer, cells were incubated with fluorescent secondary antibody (Goat anti-rabbit Alexa 647; commercially available from Invitrogen) and Hoechst nuclear stain (commercially available from Themo Scientific) prior to quantification of nuclear AR levels via Opera Phenix high-content fluorescent imager using a 40× water objective. Image analysis was performed with Harmony software.
(§2) The averaged nuclear Alexa 647 median fluorescence intensity (MFI) of PC3 cells is subtracted from the nuclear Alexa 647 MFI of PROTAC treated and DMSO control treated cells. % AR remaining is calculated for PROTAC treatments as a percent of the DMSO control (MFI PROTAC treated/MFI DMSO control treated)*100). DC50 and the Dmax values, were obtained from these normalised values fitted with a 4-parameter sigmoidal response curve (Xlfit software). The DC50 is the interpolated concentration of PROTAC corresponding to 50% of the protein being degraded, and the Dmax parameter is the maximum experimentally observed degradation.

[3] = target: T2, Androgen Receptor, MDA-PCa-2b (AR T878A/L702H) (Homo sapiens, UniProt P10275, L702H/T878A); assay: Androgen Receptor Degradation-Imaging Assay, MDA-PCa-2b cell line; format: cell-based; settings: 16 hours treatment, immunofluorescence
T2 construct: host or cells: MDA-PCa-2b
T2 sequence (P10275 1-920 L702H/T878A): T1 sequence (P10275 1-920) with L702H, T878A
Protocol: as §1, §2

[4] = target: T3, Androgen Receptor dual T878A/L702H mutant protein (Homo sapiens, UniProt P10275, L702H/T878A); assay: Dual Mutant (T878A/L702H) Androgen Receptor Degradation Assay (HTRF, MDA-PCa-2b cells); format: cell-based; settings: 18 h incubation
T3 construct: host or cells: MDA-PCa-2b
T3 sequence (P10275 1-920 L702H/T878A): T1 sequence (P10275 1-920) with L702H, T878A
Protocol: Degradation of Androgen Receptor dual T878A/L702H mutant protein in human MDA-PCa-2b (ATCC) cells treated with PROTACs was quantified using the HTRF Human Androgen Receptor Detection Kit (PerkinElmer) in 384 well assay plate format. 10 mM DMSO (Sigma-Aldrich) stock solutions of PROTACs were prepared and diluted across an 11 concentration, 3-fold increment range, and 25 nL dispensed into a white opaque bottomed 384 well assay plate (Thermofisher) using an acoustic ECHO dispenser (Labcyte). Cells were cultured in growth medium (BRFF—HPC-1 (Athena ES) supplemented with 20% FBS (Gibco), penicillin 50U/mL and streptomycin 50 μg/mL (Gibco, #15140-122)) in collagen I or poly-D-lysine coated T175 flasks (Corning, #356487 or #356539, respectively). For the assay, cells were harvested from the flask, centrifuged at 200 g for 5 min and then resuspended in the growth medium. 25 μl of cell suspension containing 10,000 cells was dispensed into each well of the assay plate containing the test compounds, which was then incubated for 18 h at 37° C./5% CO2. Control wells were included on each assay plate, with assay medium without cells being the no AR remaining 100% effect control, and cells treated with DMSO vehicle only, without PROTAC, the 0% effect control. After 18 h incubation 8 μl of supplemented lysis buffer from HTRF kit was added to each well and the plate shaken at 500 rpm for 1 h at room temperature. 8 μl of antibody mix in Detection buffer from HTRF kit was added to each well and the plate was incubated for 2 h in dark at mom temperature. The fluorescence was measured at both 620 nm and 665 nm using an excitation wavelength of 337 nm with a PHERAstar microplate reader (BMG Labtech) and the % AR protein remaining in each well was calculated by normalising the HTRF ratio (665 nm signal/620 nm signal) value to the control wells mentioned above. Parameters corresponding to the potency and efficacy estimates of the PROTACs were obtained from these normalised values using curve fitting software (IDBS ActivityBase). These included the DC50 and the Dmax estimates. Two versions of the DC50, called relative DC50 and absolute DC50, were typically generated. These are the inflection point of a fitted 4 parameter sigmoidal response curve and the interpolated concentration of PROTAC corresponding to 50% of the protein being degraded, respectively. The Dmax parameter was the maximum experimentally observed degradation and the asymptote max parameter the fitted response curve asymptote maximum.

Row | SMILES | pDC50 [1] | Dmax [1] | pDC50 [2] | pDC50 [3] | mean relative pDC50 [4]
1 | COc1c(C#N)ccc(O[C@H]2C(C)(C)[C@H](NC(=O)c3ccc(N4CCC(CN5CCC(n6ncc7c(N8CCC(=O)NC8=O)cccc76)CC5)CC4)c(F)c3)C2(C)C)c1C [Example 5, N-((1r,3r)-3-(4-Cyano-3-methoxy-2-methylphenoxy)-2,2,4,4-tetramethylcyclobutyl)-4-(4-((4-(4-(2,4-dioxotetrahydropyrimidin-1(2H)-yl)-1H-indazol-1-yl)piperidin-1-yl)methyl)piperidin-1-yl)-3-fluorobenzamide] | ≥ 8.0 | ≥ 80% | ≥ 8.0 | ≥ 7.0 | –
2 | CC1(C)[C@H](NC(=O)c2ccc(N3CCC(CN4CCC(n5ccc6c(N7CCC(=O)NC7=O)cccc65)CC4)CC3)cc2)C(C)(C)[C@H]1Oc1ccc(C#N)c2ncccc12 [Example 43, N-((1r,3r)-3-((8-Cyanoquinolin-5-yl)oxy)-2,2,4,4-tetramethylcyclobutyl)-4-(4-((4-(4-(2,4-dioxotetrahydropyrimidin-1(2H)-yl)-1H-indol-1-yl)piperidin-1-yl)methyl)piperidin-1-yl)benzamide] | ≥ 8.0 | ≥ 80% | ≥ 8.0 | ≥ 7.0 | –
3 | CC1(C)[C@H](NC(=O)c2ccc(N3CCC(CN4CCC(n5ncc6c(N7CCC(=O)NC7=O)cccc65)CC4)CC3)c(Cl)c2)C(C)(C)[C@H]1Oc1ccc(C#N)c2ncccc12 [Example 44, 3-Chloro-N-((1r,3r)-3-((8-cyanoquinolin-5-yl)oxy)-2,2,4,4-tetramethylcyclobutyl)-4-(4-((4-(4-(2,4-dioxotetrahydropyrimidin-1(2H)-yl)-1H-indazol-1-yl)piperidin-1-yl)methyl)piperidin-1-yl)benzamide] | – | – | – | – | ≥ 6.0
4 | CC1(C)[C@H](NC(=O)c2ccc(N3CCC(CN4CCC(n5ncc6c(N7CCC(=O)NC7=O)c(F)ccc65)CC4)CC3)c(F)c2)C(C)(C)[C@H]1Oc1ccc(C#N)c2ncccc12 [Example 50, N-((1r,3r)-3-((8-Cyanoquinolin-5-yl)oxy)-2,2,4,4-tetramethylcyclobutyl)-4-(4-((4-(4-(2,4-dioxotetrahydropyrimidin-1(2H)-yl)-5-fluoro-1H-indazol-1-yl)piperidin-1-yl)methyl)piperidin-1-yl)-3-fluorobenzamide] | ≥ 8.0 | ≥ 80% | ≥ 8.0 | ≥ 7.0 | –
